Measurements as given in US20240425606A1, “ANTI-IL-11RA ANTIBODIES” (Lassen Therapeutics 1, Inc., priority 2021, published 2024).
Results are given in words; binding and its absence hold for the method and conditions named. Some results given as binding are weak or reduced against the parent protein; the word gives no strength.

B1: mAb17 (antibody, human IgG4, V domains shown)
VH: EVQLLESGGGLVQPGGSLRLSCAASGFTFSDYSMTWVRQAPGKGLEWVSSIVPYGDLTQYADSVKGRFTISRDNSKNTLYLQMNSLRAEDTAVYYCAKGPGWGSFDLWGRGTLVTVSS
VL: DIQMTQSPSSLSASVGDRVTITCQASQDINNYLNWYQQKPGKAPKLLIYDASNLQTGVPSRFSGSGSGTDFTFTISSLQPEDIATYYCQQHESQSPTFGPGTKVDIK
B2: mAb19 (antibody, human IgG4, V domains shown)
VH: EVQLLESGGGLVQPGGSLRLSCAASGFTFSFYSMTWVRQAPGKGLEWVSSIVPYGDLTQYADSVKGRFTISRDNSKNTLYLQMNSLRAEDTAVYYCAKGPGWGSFDLWGRGTLVTVSS
VL: DIQMTQSPSSLSASVGDRVTITCQASQDINNYLNWYQQKPGKAPKLLIYDASNLQTGVPSRFSGSGSGTDFTFTISSLQPEDIATYYCQQHESQSPTFGPGTKVDIK
B3: mAb30 (antibody, human IgG4, V domains shown)
VH: EVQLLESGGGLVQPGGSLRLSCAASGFTFSTYSMTWVRQAPGKGLEWVSSIVPYGDLTQYADSVKGRFTISRDNSKNTLYLQMNSLRAEDTAVYYCAKGPGWGSFDLWGRGTLVTVSS
VL: DIQMTQSPSSLSASVGDRVTITCQASQDINNYLNWYQQKPGKAPKLLIYDASNLQTGVPSRFSGSGSGTDFTFTISSLQPEDIATYYCQQHESQSPTFGPGTKVDIK
B4: mAb25 (antibody, human IgG4, V domains shown)
VH: EVQLLESGGGLVQPGGSLRLSCAASGFTFSMYSMTWVRQAPGKGLEWVSSIVPYGDLTQYADSVKGRFTISRDNSKNTLYLQMNSLRAEDTAVYYCAKGPGWGSFDLWGRGTLVTVSS
VL: DIQMTQSPSSLSASVGDRVTITCQASQDINNYLNWYQQKPGKAPKLLIYDASNLQTGVPSRFSGSGSGTDFTFTISSLQPEDIATYYCQQHESQSPTFGPGTKVDIK
B5: mAb32 (antibody, human IgG4, V domains shown)
VH: EVQLLESGGGLVQPGGSLRLSCAASGFTFSYYSMTWVRQAPGKGLEWVSSIVPYGDLTQYADSVKGRFTISRDNSKNTLYLQMNSLRAEDTAVYYCAKGPGWGSFDLWGRGTLVTVSS
VL: DIQMTQSPSSLSASVGDRVTITCQASQDINNYLNWYQQKPGKAPKLLIYDASNLQTGVPSRFSGSGSGTDFTFTISSLQPEDIATYYCQQHESQSPTFGPGTKVDIK
B6: mAb22 (antibody, human IgG4, V domains shown)
VH: EVQLLESGGGLVQPGGSLRLSCAASGFTFSIYSMTWVRQAPGKGLEWVSSIVPYGDLTQYADSVKGRFTISRDNSKNTLYLQMNSLRAEDTAVYYCAKGPGWGSFDLWGRGTLVTVSS
VL: DIQMTQSPSSLSASVGDRVTITCQASQDINNYLNWYQQKPGKAPKLLIYDASNLQTGVPSRFSGSGSGTDFTFTISSLQPEDIATYYCQQHESQSPTFGPGTKVDIK
B7: mAb20 (antibody, human IgG4, V domains shown)
VH: EVQLLESGGGLVQPGGSLRLSCAASGFTFSGYSMTWVRQAPGKGLEWVSSIVPYGDLTQYADSVKGRFTISRDNSKNTLYLQMNSLRAEDTAVYYCAKGPGWGSFDLWGRGTLVTVSS
VL: DIQMTQSPSSLSASVGDRVTITCQASQDINNYLNWYQQKPGKAPKLLIYDASNLQTGVPSRFSGSGSGTDFTFTISSLQPEDIATYYCQQHESQSPTFGPGTKVDIK
B8: mAb28 (antibody, human IgG4, V domains shown)
VH: EVQLLESGGGLVQPGGSLRLSCAASGFTFSRYSMTWVRQAPGKGLEWVSSIVPYGDLTQYADSVKGRFTISRDNSKNTLYLQMNSLRAEDTAVYYCAKGPGWGSFDLWGRGTLVTVSS
VL: DIQMTQSPSSLSASVGDRVTITCQASQDINNYLNWYQQKPGKAPKLLIYDASNLQTGVPSRFSGSGSGTDFTFTISSLQPEDIATYYCQQHESQSPTFGPGTKVDIK
B9: mAb18 (antibody, human IgG4, V domains shown)
VH: EVQLLESGGGLVQPGGSLRLSCAASGFTFSEYSMTWVRQAPGKGLEWVSSIVPYGDLTQYADSVKGRFTISRDNSKNTLYLQMNSLRAEDTAVYYCAKGPGWGSFDLWGRGTLVTVSS
VL: DIQMTQSPSSLSASVGDRVTITCQASQDINNYLNWYQQKPGKAPKLLIYDASNLQTGVPSRFSGSGSGTDFTFTISSLQPEDIATYYCQQHESQSPTFGPGTKVDIK
B10: mAb16 (antibody, human IgG4, V domains shown)
VH: EVQLLESGGGLVQPGGSLRLSCAASGFTFSAYSMTWVRQAPGKGLEWVSSIVPYGDLTQYADSVKGRFTISRDNSKNTLYLQMNSLRAEDTAVYYCAKGPGWGSFDLWGRGTLVTVSS
VL: DIQMTQSPSSLSASVGDRVTITCQASQDINNYLNWYQQKPGKAPKLLIYDASNLQTGVPSRFSGSGSGTDFTFTISSLQPEDIATYYCQQHESQSPTFGPGTKVDIK
B11: mAb24 (antibody, human IgG4, V domains shown)
VH: EVQLLESGGGLVQPGGSLRLSCAASGFTFSLYSMTWVRQAPGKGLEWVSSIVPYGDLTQYADSVKGRFTISRDNSKNTLYLQMNSLRAEDTAVYYCAKGPGWGSFDLWGRGTLVTVSS
VL: DIQMTQSPSSLSASVGDRVTITCQASQDINNYLNWYQQKPGKAPKLLIYDASNLQTGVPSRFSGSGSGTDFTFTISSLQPEDIATYYCQQHESQSPTFGPGTKVDIK
B12: mAb27 (antibody, human IgG4, V domains shown)
VH: EVQLLESGGGLVQPGGSLRLSCAASGFTFSPYSMTWVRQAPGKGLEWVSSIVPYGDLTQYADSVKGRFTISRDNSKNTLYLQMNSLRAEDTAVYYCAKGPGWGSFDLWGRGTLVTVSS
VL: DIQMTQSPSSLSASVGDRVTITCQASQDINNYLNWYQQKPGKAPKLLIYDASNLQTGVPSRFSGSGSGTDFTFTISSLQPEDIATYYCQQHESQSPTFGPGTKVDIK
B13: mAb26 (antibody, human IgG4, V domains shown)
VH: EVQLLESGGGLVQPGGSLRLSCAASGFTFSNYSMTWVRQAPGKGLEWVSSIVPYGDLTQYADSVKGRFTISRDNSKNTLYLQMNSLRAEDTAVYYCAKGPGWGSFDLWGRGTLVTVSS
VL: DIQMTQSPSSLSASVGDRVTITCQASQDINNYLNWYQQKPGKAPKLLIYDASNLQTGVPSRFSGSGSGTDFTFTISSLQPEDIATYYCQQHESQSPTFGPGTKVDIK
B14: mAb5 (antibody, V domains shown)
VH: EVQLLESGGGLVQPGGSLRLSCAASGFTFSWYSMTWVRQAPGKGLEWVSSIVPYGDLTQYADSVKGRFTISRDNSKNTLYLQMNSLRAEDTAVYYCAKGPGWGSFDLWGRGTLVTVSS
VL: DIQMTQSPSSLSASVGDRVTITCQASQDINNYLNWYQQKPGKAPKLLIYDASNLQTGVPSRFSGSGSGTDFTFTISSLQPEDIATYYCQQHESQSPTFGPGTKVDIK
notes: Expressed as human IgG4 (S228P EU); also called mAb5 IL11RA Ab
B15: mAb8 (antibody, V domains shown)
VH: EVQLLESGGGLVQPGGSLRLSCAASGFTFSSYAMSWVRQAPGKGLEWVSSIVPYGDLTQYADSVKGRFTISRDNSKNTLYLQMNSLRAEDTAVYYCAKGPGWGSFDLWGRGTLVTVSS
VL: DIQMTQSPSSLSASVGDRVTITCQASQDINNYLNWYQQKPGKAPKLLIYDASNLQTGVPSRFSGSGSGTDFTFTISSLQPEDIATYYCQQHESQSPTFGPGTKVDIK
notes: Expressed as human IgG4 (S228P EU)
B16: mAb13 (antibody, V domains shown)
VH: EVQLLESGGGLVQPGGSLRLSCAASGFTFSWYSMTWVRQAPGKGLEWVSSIVPYGDLTQYADSVKGRFTISRDNSKNTLYLQMNSLRAEDTAVYYCAKPEDWGRFDLWGRGTLVTVSS
VL: DIQMTQSPSSLSASVGDRVTITCQASQDINNYLNWYQQKPGKAPKLLIYDASNLQTGVPSRFSGSGSGTDFTFTISSLQPEDIATYYCQQHESQSPTFGPGTKVDIK
notes: as for B15
B17: mAb12 (antibody, V domains shown)
VH: EVQLLESGGGLVQPGGSLRLSCAASGFTFSWYSMTWVRQAPGKGLEWVSSIVPYGDLTQYADSVKGRFTISRDNSKNTLYLQMNSLRAEDTAVYYCAKGPGWYSFDLWGRGTLVTVSS
VL: DIQMTQSPSSLSASVGDRVTITCQASQDINNYLNWYQQKPGKAPKLLIYDASNLQTGVPSRFSGSGSGTDFTFTISSLQPEDIATYYCQQHESQSPTFGPGTKVDIK
notes: as for B15
B18: mAb6 (antibody, V domains shown)
VH: EVQLLESGGGLVQPGGSLRLSCAASGFTFSWYSMTWVRQAPGKGLEWVSSIVPYGDLTQYADSVKGRFTISRDNSKNTLYLQMNSLRAEDTAVYYCAKGPGWGSFDLWGRGTLVTVSS
VL: DIQMTQSPSSLSASVGDRVTITCQASQDINNYLNWYQQKPGKAPKLLIYDASNLQTGVPSRFSGSGSGTDFTFTISSLQPEDIATYYCQQHEFQSPTFGPGTKVDIK
notes: as for B15
B19: mAb9 (antibody, V domains shown)
VH: EVQLLESGGGLVQPGGSLRLSCAASGFTFSWYSMTWVRQAPGKGLEWVSGIVPYGDLTQYADSVKGRFTISRDNSKNTLYLQMNSLRAEDTAVYYCAKGPGWGSFDLWGRGTLVTVSS
VL: DIQMTQSPSSLSASVGDRVTITCQASQDINNYLNWYQQKPGKAPKLLIYDASNLQTGVPSRFSGSGSGTDFTFTISSLQPEDIATYYCQQHESQSPTFGPGTKVDIK
notes: as for B15
B20: mAb7 (antibody, V domains shown)
VH: EVQLLESGGGLVQPGGSLRLSCAASGFTFSNYAMSWVRQAPGKGLEWVSSIVPYGDLTQYADSVKGRFTISRDNSKNTLYLQMNSLRAEDTAVYYCAKGPGWGSFDLWGRGTLVTVSS
VL: DIQMTQSPSSLSASVGDRVTITCQASQDINNYLNWYQQKPGKAPKLLIYDASNLQTGVPSRFSGSGSGTDFTFTISSLQPEDIATYYCQQHESQSPTFGPGTKVDIK
notes: as for B15

These binders were tested against T1, human IL-11Rα (human, UniProt Q14626 23-363, limits assumed) (assay: BLI (Octet RED96e), AHC biosensors, qualitative assessment against mAb5).
T1 construct: Protein coated on ELISA plates and used in solution for BLI; also called hIL-11Rα; hIL-11R
T1 sequence: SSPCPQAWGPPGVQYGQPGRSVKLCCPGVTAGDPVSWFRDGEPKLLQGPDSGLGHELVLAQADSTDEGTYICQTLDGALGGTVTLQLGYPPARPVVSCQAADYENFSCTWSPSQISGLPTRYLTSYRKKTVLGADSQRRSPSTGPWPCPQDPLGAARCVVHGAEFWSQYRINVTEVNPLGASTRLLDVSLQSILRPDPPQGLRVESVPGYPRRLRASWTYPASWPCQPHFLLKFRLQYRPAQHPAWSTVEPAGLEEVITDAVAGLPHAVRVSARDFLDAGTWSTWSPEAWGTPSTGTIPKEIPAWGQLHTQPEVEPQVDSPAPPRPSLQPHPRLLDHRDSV

binding, binds:
B1, B2, B3, B4, B5, B6, B7, B8, B9, B10, B11, B12, B13

What follows are binders tested against T1, human IL-11Rα (assay: BLI (Octet RED96e), mAb on protein G biosensors, hIL-11Rα in solution).
Description: Association was carried out in the presence of a 2-fold dilution series of hIL-11Rα and was allowed to proceed for 120 seconds; dissociation was measured for 300 to 1200 seconds.

binding, binds:
B14, B15, B16, B17, B18, B19, B20
